# Assay results: article PMC7819943, “Rice protein-binding microarrays: a tool to detect cis-acting elements near promoter regions in rice”
# Amino acid sequences for entries named in this document (tags omitted).
# UniProt Q0JBA9, entry or part of it: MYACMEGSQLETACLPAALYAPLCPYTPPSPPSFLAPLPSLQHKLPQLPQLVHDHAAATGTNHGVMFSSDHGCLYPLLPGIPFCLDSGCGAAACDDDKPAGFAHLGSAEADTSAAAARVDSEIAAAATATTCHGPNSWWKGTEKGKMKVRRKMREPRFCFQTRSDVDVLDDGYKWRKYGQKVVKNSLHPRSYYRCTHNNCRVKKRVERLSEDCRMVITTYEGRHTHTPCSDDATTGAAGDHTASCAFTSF
# This is one part of the list.
# Molecular target: OsWRKY34 (Oryza sativa, UniProt Q0JBA9 1-250)
# Test: protein-binding microarray (RPBM); PBS, 2% BSA, 51.3 ng/ul salmon testes DNA, 50 uM zinc acetate, 200 nM TF, 25 C, 1 h; high values mean tight binding
# Conditions: protein: recombinant; tags: N-terminal polyhistidine and DsRed monomer fusion (pET32a); label: CyDye5-dUTP incorporated in the synthesized complementary strand; 3' TTTTT single-stranded linker to array surface; dsDNA, one strand shown
# How it was run: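 Transcription factors were made in E. coli BL21-CodonPlus as N-terminal fusions to a polyhistidine tag and DsRed, then purified on Ni–NTA. After primer extension with Cy5-dUTP and blocking with 2% BSA, a custom Agilent array was exposed for 1 h at 25 °C to 200 nM protein in PBS, 2% BSA, salmon testes DNA and 50 µM zinc acetate. Washed arrays were scanned on an Axon 4000B, and the binding signal is per-feature fluorescence intensity in arbitrary units.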
row,Sequence,binding signal
1,ATAGGGTCCATAATCTTCTAACGCGCTCATTCGTACTCATCGGAGTCACCTAGTGCAG,8420 fluorescence intensity (a.u.)
2,AGTTTAGTCTTATATTTTAAAATGTATTTGTATACCGTATCGGAGTCACCTAGTGCAG,9200 fluorescence intensity (a.u.)
3,GCCACCACCTTCTCATCTGATGTCTTCTCCTTGACCCTTCCGGAGTCACCTAGTGCAG,8160 fluorescence intensity (a.u.)
4,CGGGAGGGCGAGAGGGTTTTCGGAGCGGGAGGGGAAGATGCGGAGTCACCTAGTGCAG,15200 fluorescence intensity (a.u.)
5,GGGGTTTTTCATCGAAGTTTATTTTTCAACCTTTACTTTTCGGAGTCACCTAGTGCAG,12700 fluorescence intensity (a.u.)
6,CCAACATAATGTACATCGACACGCTTCAGAGCGGCACACTCGGAGTCACCTAGTGCAG,8460 fluorescence intensity (a.u.)
7,TTCACTCTTCACGCCACACTTGGCCGCCGCGTCCATATCTCGGAGTCACCTAGTGCAG,8690 fluorescence intensity (a.u.)
8,TATTTTCTACTTATTTGTTATTTTCTACTTGTATTGAACCCGGAGTCACCTAGTGCAG,8450 fluorescence intensity (a.u.)
9,CTTACTCTCGTCCATGCCACCGCTTATCACTAGCTAGCTACGGAGTCACCTAGTGCAG,8520 fluorescence intensity (a.u.)
10,CAGCATCCATCGCAGCGAGCGACCGTCGGCATCACAAGCCCGGAGTCACCTAGTGCAG,8120 fluorescence intensity (a.u.)
11,TGGGGATGGAGCTTGCCTGGGTGGTGGTGAGGGCGCAGTTCGGAGTCACCTAGTGCAG,8680 fluorescence intensity (a.u.)
12,CGCCGCCCACAGCTTCGCCCGCGCCACCCGTAGCTTCGCCCGGAGTCACCTAGTGCAG,8420 fluorescence intensity (a.u.)
13,CTCCGATCGAGGGGTTGTCGTCTCCGCGCGGTGGCGGGGCCGGAGTCACCTAGTGCAG,8200 fluorescence intensity (a.u.)
14,TCCATCCGGGCCGTTCGCTTTCCGTTTTTATTTTCCTCCTCGGAGTCACCTAGTGCAG,11200 fluorescence intensity (a.u.)
15,AATCCCGAACCTGCGCCGCGTCATTTGAGCAAATTCTGTACGGAGTCACCTAGTGCAG,8300 fluorescence intensity (a.u.)
16,GATTCCTTCCTTTTGTTTTTGGGCCGAATTCTCCTTCTTTCGGAGTCACCTAGTGCAG,13000 fluorescence intensity (a.u.)
17,GAGGCATTACAGTATTATGAATCGATCTTGTGTTATTTTGCGGAGTCACCTAGTGCAG,8350 fluorescence intensity (a.u.)
18,GTAATTTCCCGGGTTTCCCATGCATCTCCTCTCGTCGCTGCGGAGTCACCTAGTGCAG,10500 fluorescence intensity (a.u.)
19,GCGCGCCGCCGCTCATCGCCATCCACCCGCACCCTCCCAACGGAGTCACCTAGTGCAG,9720 fluorescence intensity (a.u.)
20,ATAAATTATTCACTGTTGACACTTAAGGATTTGACTTTACCGGAGTCACCTAGTGCAG,8610 fluorescence intensity (a.u.)
21,TACTATTCTCCTAATTAGTACTCCATCCGTCCTAAAATATCGGAGTCACCTAGTGCAG,10300 fluorescence intensity (a.u.)

row,Sequence,binding signal
1,ACACACACAACTTTTCAGTCGCATCATCTCCAATTTCAACCGGAGTCACCTAGTGCAG,9260 fluorescence intensity (a.u.)
2,GATTTGTGTTTTTTTATGTAAGTCTACTTCTACACCCAATCGGAGTCACCTAGTGCAG,8510 fluorescence intensity (a.u.)
3,CTCGCTTCGCTTCTTCTCCTCTCTCTCTCTCTATCTTCACCGGAGTCACCTAGTGCAG,9060 fluorescence intensity (a.u.)
4,GGCGTCGATCTGGAGGCGGTCGGCGGGGAGGGGCGCCGGCCGGAGTCACCTAGTGCAG,14900 fluorescence intensity (a.u.)
5,TGTAACATGAGGATGTGTTATACCCAGTTTTGCAATTGAGCGGAGTCACCTAGTGCAG,8130 fluorescence intensity (a.u.)
6,CATCTTTTTTTTTAAGGGTTAGTGTAGGTCGTCATGACAGCGGAGTCACCTAGTGCAG,8060 fluorescence intensity (a.u.)
7,ATCTTCCCTTACAGTGACATCCTTTGTTCTTGCCGTCTCTCGGAGTCACCTAGTGCAG,17600 fluorescence intensity (a.u.)
8,AGTGTGCTTATACTACCTCATTGTATTATGTTTGCTCTTACGGAGTCACCTAGTGCAG,10000 fluorescence intensity (a.u.)
9,GTGTGTGTTGCGTGGTGGGGAGGAAGATCTCGAGCGGTTGCGGAGTCACCTAGTGCAG,9590 fluorescence intensity (a.u.)
10,GTCCCGGTCCACGACGCATCCACCCATTTAAACCCCACCTCGGAGTCACCTAGTGCAG,9450 fluorescence intensity (a.u.)
11,AGAAGGTGTCGGGGTGGCGGGGTAGACAGGCGCTAGTGCTCGGAGTCACCTAGTGCAG,8450 fluorescence intensity (a.u.)
12,AGGTTGATCTACTCTTGTCCAGTCATTTCTGCAGTTTGCCCGGAGTCACCTAGTGCAG,8400 fluorescence intensity (a.u.)
13,CAGGGGTGTGTTTGAGTAGAAGGAGATCGGGGAGATTGGACGGAGTCACCTAGTGCAG,9230 fluorescence intensity (a.u.)
14,CGCTTCTCTCTCTCTCTCTCTCCTCGCGCCGCCGCCGCCACGGAGTCACCTAGTGCAG,9010 fluorescence intensity (a.u.)
15,CCTACATACTCAAATGGTTGTTCTTGTTTTTTTTTTCTCTCGGAGTCACCTAGTGCAG,10800 fluorescence intensity (a.u.)
16,TCCATCATTAGCAAATGTTTATCGTAGCATCACATTGTCACGGAGTCACCTAGTGCAG,8520 fluorescence intensity (a.u.)
17,ACCCTCGCCACCGTCCCCGCCTCCGTCGACAGCAGCCCGCCGGAGTCACCTAGTGCAG,12100 fluorescence intensity (a.u.)
18,ATATTTGCATGGCAAAAATTTCCATATCATTGTTTCTTGTCGGAGTCACCTAGTGCAG,8270 fluorescence intensity (a.u.)
19,TTTTTCTTTTTCTTTTTATTACTTATTAATTTGGTAATTTCGGAGTCACCTAGTGCAG,9180 fluorescence intensity (a.u.)
20,ATGACCTTTCTGTTTTCAAGCTAGCTGCCTGGACCACCGACGGAGTCACCTAGTGCAG,9410 fluorescence intensity (a.u.)
21,ACCCCTACCATGCCACTCTCCAGCCATGAATACCTTGGTACGGAGTCACCTAGTGCAG,8640 fluorescence intensity (a.u.)

# Looked up one by one from the list above, 2 records:
row,Sequence,binding signal
18,GTAATTTCCCGGGTTTCCCATGCATCTCCTCTCGTCGCTGCGGAGTCACCTAGTGCAG,10500 fluorescence intensity (a.u.)
18,ATATTTGCATGGCAAAAATTTCCATATCATTGTTTCTTGTCGGAGTCACCTAGTGCAG,8270 fluorescence intensity (a.u.)

# (listing goes on)

row,Sequence,binding signal
1,GTTGACTTTTTTTTAAACATGTTTGACCATTCATCTTATTCGGAGTCACCTAGTGCAG,11100 fluorescence intensity (a.u.)
2,CTATTCGCAGTGAAATTTGTTATTTTCGCTTCTACTTATACGGAGTCACCTAGTGCAG,8550 fluorescence intensity (a.u.)
3,TATTGAGTGCATATGGAATGGGCCTTGCTGATGTTATTGACGGAGTCACCTAGTGCAG,8570 fluorescence intensity (a.u.)
4,TCTATTTTTTTTACTGCCATATACCCGGTCCCACTAACTTCGGAGTCACCTAGTGCAG,10200 fluorescence intensity (a.u.)
5,TGTTTGGTTGGGATACATGGGAATTTTGGTAGGATGGGGACGGAGTCACCTAGTGCAG,12700 fluorescence intensity (a.u.)
6,TATTTTCTTGCTCTATTTTTCTCAATCCTGCATTCAATCCCGGAGTCACCTAGTGCAG,9840 fluorescence intensity (a.u.)
7,ACGCGGGTGGGCTGGACGCCGAGCTGGTCGGGGAGGCACTCGGAGTCACCTAGTGCAG,8670 fluorescence intensity (a.u.)
8,CCATTCTAGCATTTCATTTTTTTTATCAAATTACTTATATCGGAGTCACCTAGTGCAG,9160 fluorescence intensity (a.u.)
9,CATTGCGGTTACTCTTATCTCTCCACGGATCCGCGCTCAGCGGAGTCACCTAGTGCAG,8510 fluorescence intensity (a.u.)
10,CTCATGTTGTTTGACGGTTTGACTCTCCTAGTTTATCATCCGGAGTCACCTAGTGCAG,9960 fluorescence intensity (a.u.)
11,TCACCACTATCATTTAACCGGACTTTACTTTAATTAGATTCGGAGTCACCTAGTGCAG,12600 fluorescence intensity (a.u.)
12,CGCTCTGTTTTACGTGTATAAAGGCCATCCATTTGAGTTACGGAGTCACCTAGTGCAG,9180 fluorescence intensity (a.u.)
13,TATTTTTCCGGATCAAATTGACATATAAGCGCCACGTCAACGGAGTCACCTAGTGCAG,8550 fluorescence intensity (a.u.)
14,TACCGTTCCAGCCCAACATAATATAGGCCCGCTCTTCGGTCGGAGTCACCTAGTGCAG,8060 fluorescence intensity (a.u.)
15,CCGACGCTTCATATAGTTGCCTCGTCGGCGTGCACGATCCCGGAGTCACCTAGTGCAG,10400 fluorescence intensity (a.u.)
16,AACATCGACACGGTCTCTAAAATACAACTTTGACTTCTTTCGGAGTCACCTAGTGCAG,9920 fluorescence intensity (a.u.)
17,CTGGCTTCCACTTTGGTTTCTACAGATCTATCTATATCTCCGGAGTCACCTAGTGCAG,10600 fluorescence intensity (a.u.)
18,TGCACCTGATATTCCAAGATTTAGTTACTGCACACAATATCGGAGTCACCTAGTGCAG,8460 fluorescence intensity (a.u.)
19,ACCACCACCACCGTCTCCATCCTTCCGGCCGGCCACAGTCCGGAGTCACCTAGTGCAG,9180 fluorescence intensity (a.u.)
20,TGTCATAGGTTTTAATGATGTTTGGTGTTTTCTGCTGGTACGGAGTCACCTAGTGCAG,8300 fluorescence intensity (a.u.)
21,GCCTAGCGGGAGGGGTGTTTAGTTTTGACCATAAGGTTCCCGGAGTCACCTAGTGCAG,10600 fluorescence intensity (a.u.)

# Part of the list above, tab-delimited:
row	Sequence	binding signal
19	GCGCGCCGCCGCTCATCGCCATCCACCCGCACCCTCCCAACGGAGTCACCTAGTGCAG	9720 fluorescence intensity (a.u.)
20	ATAAATTATTCACTGTTGACACTTAAGGATTTGACTTTACCGGAGTCACCTAGTGCAG	8610 fluorescence intensity (a.u.)
21	TACTATTCTCCTAATTAGTACTCCATCCGTCCTAAAATATCGGAGTCACCTAGTGCAG	10300 fluorescence intensity (a.u.)
1	ACACACACAACTTTTCAGTCGCATCATCTCCAATTTCAACCGGAGTCACCTAGTGCAG	9260 fluorescence intensity (a.u.)

# Carrying on.

row,Sequence,binding signal
1,TCTTTTCTTCCCGGAGATGTTTATGCATTAACAACGTAACCGGAGTCACCTAGTGCAG,9520 fluorescence intensity (a.u.)
2,ATTATTCCTCTTTTCCCTCCTACTCTGGGCAAATCTATTTCGGAGTCACCTAGTGCAG,9220 fluorescence intensity (a.u.)
3,ATGTTGTTTCCCGTGGTCGTCCTTTCGCCGTGTTCGGTTGCGGAGTCACCTAGTGCAG,11400 fluorescence intensity (a.u.)
4,TGCTCCGTCGCCACGCTCGCGCTCCTCTACTCTGTCCGCGCGGAGTCACCTAGTGCAG,13800 fluorescence intensity (a.u.)
5,TAGTATATACATGCTTGAATTGCTTGGTTGCCACATCTTTCGGAGTCACCTAGTGCAG,9520 fluorescence intensity (a.u.)
6,TCCATAGATTCGCATATGCTTCCTTGACATCTCCACAGAACGGAGTCACCTAGTGCAG,12600 fluorescence intensity (a.u.)
7,CTCGTGCCGAGCAGCGTGTACGCCTCACTCCGCCTCATCACGGAGTCACCTAGTGCAG,8050 fluorescence intensity (a.u.)
8,TCCGATCGGCTACCACCCGCCGCCACCACCACCACCACAACGGAGTCACCTAGTGCAG,10500 fluorescence intensity (a.u.)
9,CGAGCTCCTTCGATTCGATCCACCTCGTCTCGGTTCCTCTCGGAGTCACCTAGTGCAG,8880 fluorescence intensity (a.u.)
10,AGCAATGGCGTCTCTACTCGGACTCCTCTTCTCTTCTCTTCGGAGTCACCTAGTGCAG,13000 fluorescence intensity (a.u.)
11,TATTTATTTTTTTGCTGGTTGTTTTGTTTGCTTTTCAATTCGGAGTCACCTAGTGCAG,14100 fluorescence intensity (a.u.)
12,CCTGTTTAGTTCATCTGTTCATTTCACATTAAGTTAAATTCGGAGTCACCTAGTGCAG,9520 fluorescence intensity (a.u.)
13,GTTCTTCTCCAACTCACCCTGTTTCTCTCACCAAATGCCCCGGAGTCACCTAGTGCAG,8810 fluorescence intensity (a.u.)
14,TGTTCGAATTTTTTGCTTCCTTGATTTCTTTTGCGAGCAGCGGAGTCACCTAGTGCAG,8320 fluorescence intensity (a.u.)
15,CCAAGCGCCCGCCGCCTCGCTCCCTCCTCTTCCTTGACCTCGGAGTCACCTAGTGCAG,35200 fluorescence intensity (a.u.)
16,ACGTGAATTAATACTGCATTATTCCTGCTTGCTTTTTTTTCGGAGTCACCTAGTGCAG,10100 fluorescence intensity (a.u.)
17,GGGTTGGGTGCTTACCATGCCGCCGGTGAGGTAGCGGAGGCGGAGTCACCTAGTGCAG,8420 fluorescence intensity (a.u.)
18,CCGTTGACTTTTTAACTAATGTTTAACCATTCATTTTATTCGGAGTCACCTAGTGCAG,28900 fluorescence intensity (a.u.)
19,ATCTATGTTTTTCTGCGGGCCGGGTTGGTTTGTTTCCTACCGGAGTCACCTAGTGCAG,10300 fluorescence intensity (a.u.)
20,CCTCGAGCACTCGAGTATCTCCGCCGTCCTTTCCGCGTCACGGAGTCACCTAGTGCAG,9660 fluorescence intensity (a.u.)
21,CCCGATTCTTTGTTGCACTGGTAAGCATATTCATCCAAAACGGAGTCACCTAGTGCAG,8440 fluorescence intensity (a.u.)
